From paper PMC7819943, “Rice protein-binding microarrays: a tool to detect cis-acting elements near promoter regions in rice”
The list shows a part of the results.

Amino acid sequences for entries named in this document (tags omitted).
UniProt Q0JBA9, entry or part of it: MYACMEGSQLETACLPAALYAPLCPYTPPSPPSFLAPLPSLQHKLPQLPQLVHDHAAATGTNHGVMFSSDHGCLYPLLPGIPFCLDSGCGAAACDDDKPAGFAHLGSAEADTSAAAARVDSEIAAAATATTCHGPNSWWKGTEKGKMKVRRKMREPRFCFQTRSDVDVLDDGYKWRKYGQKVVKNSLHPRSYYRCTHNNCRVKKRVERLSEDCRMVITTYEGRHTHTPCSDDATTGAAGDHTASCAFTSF

Target: OsWRKY34 (Oryza sativa, UniProt Q0JBA9 1-250)
Assay: protein-binding microarray (RPBM); PBS, 2% BSA, 51.3 ng/ul salmon testes DNA, 50 uM zinc acetate, 200 nM TF, 25 C, 1 h; high values mean tight binding
Details: protein: recombinant; tags: N-terminal polyhistidine and DsRed monomer fusion (pET32a); label: CyDye5-dUTP incorporated in the synthesized complementary strand; 3' TTTTT single-stranded linker to array surface; dsDNA, one strand shown
Summary of the method: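 Transcription factors, each fused N-terminally to a polyhistidine tag and DsRed, were expressed in E. coli BL21-CodonPlus and purified on Ni–NTA. A custom Agilent array was made double-stranded by primer extension with Cy5-dUTP and blocked with 2% BSA. It was incubated with 200 nM protein in PBS, 2% BSA, salmon testes DNA and 50 µM zinc acetate at 25 °C for 1 h, then washed. The binding signal is per-feature fluorescence intensity (arbitrary units) read on an Axon 4000B scanner.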

Sequence | binding signal
GAGGGAGGGTCATCGCCATCGAATCCCAAAAAATCACCCGCGGAGTCACCTAGTGCAG | 8150 fluorescence intensity (a.u.)
ACTCTCTCTGTTTCAGGTCATAAGACGTTTTGACTTTGGACGGAGTCACCTAGTGCAG | 10600 fluorescence intensity (a.u.)
TTACCCAGTCTTCTACCCATCTCTCTCTCCCTAGCCTAGTCGGAGTCACCTAGTGCAG | 8360 fluorescence intensity (a.u.)
ATACAATCTACTTGAATCGTTTTTTCTTTACTTTTCAGTTCGGAGTCACCTAGTGCAG | 9840 fluorescence intensity (a.u.)
GTATATGCGCGCACAAGAGATTTGAAGTGACCTTTCCATACGGAGTCACCTAGTGCAG | 8100 fluorescence intensity (a.u.)
TCCCCTATCCAGGGAGGGTTTTGACTTTTTTGACTCTGACCGGAGTCACCTAGTGCAG | 10900 fluorescence intensity (a.u.)
AGTACTCCCTCCGTTTCTAAATATTTGACACCGTTGACTTCGGAGTCACCTAGTGCAG | 12700 fluorescence intensity (a.u.)
GACCTAGCTCTGCCCTTTCTTTCTGAAATAAATAATGCATCGGAGTCACCTAGTGCAG | 8960 fluorescence intensity (a.u.)
GACAAAGCCGTAAATTCCGCCCCGTTTCGCTGTGCCGTGCCGGAGTCACCTAGTGCAG | 9950 fluorescence intensity (a.u.)
GACAGTATACCTTCAACTTTTATTTACCGTCTTCTCTTTCCGGAGTCACCTAGTGCAG | 8350 fluorescence intensity (a.u.)
ATACCTCTCGCACCTGTCCATGTTGCCTTGTAGATATACACGGAGTCACCTAGTGCAG | 14700 fluorescence intensity (a.u.)
GGAGGGCGGGTTGGGCTGGATCCGGGCGACGACGGCTCCGCGGAGTCACCTAGTGCAG | 16000 fluorescence intensity (a.u.)
AACTTTTCTACACACATAAACTTCTAATTTTTCCAACATACGGAGTCACCTAGTGCAG | 8330 fluorescence intensity (a.u.)
AATTCAGACAACCTTGTTCCCGTTGACGAATTCAGCCCACCGGAGTCACCTAGTGCAG | 8760 fluorescence intensity (a.u.)
GCCAAAGCCATACCCATCATCTTCACATGGAATTCCAATTCGGAGTCACCTAGTGCAG | 8960 fluorescence intensity (a.u.)
GCATCTCTGCCCCAGTTCGTGCGTAGTATGTCACGCTCACCGGAGTCACCTAGTGCAG | 12000 fluorescence intensity (a.u.)
ATCCAAGCGCCCGCCTCTATATATGCGCGCCGCCACCATGCGGAGTCACCTAGTGCAG | 8370 fluorescence intensity (a.u.)
TTACTCTTCTCTCTCTTCCTTTATCTCTTTAAAATATTACCGGAGTCACCTAGTGCAG | 9970 fluorescence intensity (a.u.)
TCACTGCCTCTCTTCTTGCTCATCTCCCAATCCACTACTTCGGAGTCACCTAGTGCAG | 8900 fluorescence intensity (a.u.)
GTCGTCATGTTCCAAAAGTCTCGTCCCATGTGACCCTCCACGGAGTCACCTAGTGCAG | 8310 fluorescence intensity (a.u.)
GCTTTCGACCCACTACATAATTTTTTTATTTCCTATTCCACGGAGTCACCTAGTGCAG | 9700 fluorescence intensity (a.u.)

Reprinted at random: 3 records from the list.
Sequence | binding signal
GTATATGCGCGCACAAGAGATTTGAAGTGACCTTTCCATACGGAGTCACCTAGTGCAG | 8100 fluorescence intensity (a.u.)
GCTTTCGACCCACTACATAATTTTTTTATTTCCTATTCCACGGAGTCACCTAGTGCAG | 9700 fluorescence intensity (a.u.)
ACTCTCTCTGTTTCAGGTCATAAGACGTTTTGACTTTGGACGGAGTCACCTAGTGCAG | 10600 fluorescence intensity (a.u.)

Further results.

Sequence | binding signal
AATCATATTCTTCACCTCTGCAGTTTCATTCCTTTCAGGCCGGAGTCACCTAGTGCAG | 9040 fluorescence intensity (a.u.)
AGAGCTTTTCTTAGACCCATTTTTTGCACTCTTTAAAGATCGGAGTCACCTAGTGCAG | 8670 fluorescence intensity (a.u.)
ACGATCTGACTCAGATAACTGACACGCTGCTCTCAATCGCCGGAGTCACCTAGTGCAG | 8180 fluorescence intensity (a.u.)
AACCACAGTAGCTCACAGGCCATTATCCTGTCAGTACTTACGGAGTCACCTAGTGCAG | 8220 fluorescence intensity (a.u.)
GGGTTCTTTGTTCTTGTAGTGGTAGTAGCCACTTGCTTGACGGAGTCACCTAGTGCAG | 11400 fluorescence intensity (a.u.)
ACCTCATCATTTTCCATCGCTCCCATCCGCGTCGCTCCCGCGGAGTCACCTAGTGCAG | 10300 fluorescence intensity (a.u.)
GTCAGCGGGCAGGTAAGCATCCCCGACATCGATGTCGATCCGGAGTCACCTAGTGCAG | 8790 fluorescence intensity (a.u.)
CACTGCCACTCGCCACCCAGCTCCGTCCTATGCCTCCGCGCGGAGTCACCTAGTGCAG | 12400 fluorescence intensity (a.u.)
TCAGTGATAGAGTCGGAGCAATGTTGGTCTCATTTTCGTTCGGAGTCACCTAGTGCAG | 8140 fluorescence intensity (a.u.)
CCTGCCCGTTTCAGACCTCGGCGCGTGCACATATATACCACGGAGTCACCTAGTGCAG | 11100 fluorescence intensity (a.u.)
AACGTTTGACCATTTGTTTTATTCAAAATTTTTGTGTAAACGGAGTCACCTAGTGCAG | 8770 fluorescence intensity (a.u.)
CTCCATCCCTCGTGCGGCTTAGCTCTTTTTTTTCCGAATTCGGAGTCACCTAGTGCAG | 8730 fluorescence intensity (a.u.)
ATACGTACCCTTTGATGGATGGTTGACCTAGGGTTTTTGTCGGAGTCACCTAGTGCAG | 11100 fluorescence intensity (a.u.)
TCTTAAGCGTGTTCATGGGTCTTGTTATGCTCAAGTCAAACGGAGTCACCTAGTGCAG | 8950 fluorescence intensity (a.u.)
CCCAGACTAACTCCACCCATGCCGCCTTTGTTTTCCCCATCGGAGTCACCTAGTGCAG | 11400 fluorescence intensity (a.u.)
ACATTGTGCATGGGAGTTTAATTACGGGGATGGGAATTTACGGAGTCACCTAGTGCAG | 8780 fluorescence intensity (a.u.)
CGTACTTCACCGGCTTCGCCATTGGGGCGGCGGTGGCGGGCGGAGTCACCTAGTGCAG | 10200 fluorescence intensity (a.u.)
TCGCGTGTGCCTTTCTCAGTTGCATCTTCCTTGCGGCATCCGGAGTCACCTAGTGCAG | 12000 fluorescence intensity (a.u.)
ATTCACATCATCTTCAAGATTTTTCACTTAATTCTTAGCACGGAGTCACCTAGTGCAG | 10400 fluorescence intensity (a.u.)
GGCCCTATCTTGCACCAAATTGCCAACATAAACTCAATCACGGAGTCACCTAGTGCAG | 9720 fluorescence intensity (a.u.)
GTTCTTCCTCTCTGATTGCTCAACGACAAGTGGTCAACACCGGAGTCACCTAGTGCAG | 8220 fluorescence intensity (a.u.)

Sequence | binding signal
CTCTCTCTCTCTCTCTCTCTCTCTCTCGATGCCGACGCTTCGGAGTCACCTAGTGCAG | 11000 fluorescence intensity (a.u.)
CGTCGCCCGAGAGCGAACGGCCGTCTGCCACGTCATTTTCCGGAGTCACCTAGTGCAG | 9570 fluorescence intensity (a.u.)
GCCATCCCTAGCATGTCAGTTGACACTGCTGGTCTTCTTCCGGAGTCACCTAGTGCAG | 8220 fluorescence intensity (a.u.)
GAATACGGTCACTCCTGACAGCTTATTTTCGAGGGCCTTTCGGAGTCACCTAGTGCAG | 8470 fluorescence intensity (a.u.)
TGAGGTGGGGCGGTCGGATCTTGCCGGGATGGGCGAGCTTCGGAGTCACCTAGTGCAG | 10700 fluorescence intensity (a.u.)
CTGCGACCATTCTGTTATGCCATCTCCAGATATATTGATTCGGAGTCACCTAGTGCAG | 12500 fluorescence intensity (a.u.)
AACTCGCTAACCATTTTTTTTCTTTTTTTTTGATTTGTTACGGAGTCACCTAGTGCAG | 10200 fluorescence intensity (a.u.)
CACCGCGCCACCGCATCGCCCGTCGTCGGCCGCCCTTTCCCGGAGTCACCTAGTGCAG | 12000 fluorescence intensity (a.u.)
CTCAATTCCGCCGTCAAAGTCTTCGATTGATCCGATCTCTCGGAGTCACCTAGTGCAG | 8430 fluorescence intensity (a.u.)
TACTCGATCCTGCCTTCCTTGACCTTTTTTTCTTTTCTTCCGGAGTCACCTAGTGCAG | 9710 fluorescence intensity (a.u.)
CACACTCTCCATTTTTACTTGGGCCCCACCTGCCAATGTCCGGAGTCACCTAGTGCAG | 8850 fluorescence intensity (a.u.)
TGGTGGTGTGTATGTATCGAGAAAAAAATCATGTACCTTGCGGAGTCACCTAGTGCAG | 10400 fluorescence intensity (a.u.)
TTGAGTAGTTTCCACATGGTTAGATATTGTTTCATTTAACCGGAGTCACCTAGTGCAG | 8790 fluorescence intensity (a.u.)
TTTATTTCTTCTGTTTTATAGTCTGATGCATTTTTGTTAACGGAGTCACCTAGTGCAG | 8540 fluorescence intensity (a.u.)
ACCACCACCACCACGGCGGCGGCCGCGGCCCGCTTCACCTCGGAGTCACCTAGTGCAG | 8230 fluorescence intensity (a.u.)
CCATCATCTCTCGATCCATCTCCAGCAAGTTACCTATAAACGGAGTCACCTAGTGCAG | 9580 fluorescence intensity (a.u.)
ATTTCTCATGCCAATTCGGCCCACACCAACCAACCCCGCACGGAGTCACCTAGTGCAG | 11500 fluorescence intensity (a.u.)
CAATTCGTCCTGATCTGGTTGTCCAAGCTTGGGATTCGCCCGGAGTCACCTAGTGCAG | 8760 fluorescence intensity (a.u.)
TTTTTTATCCGGGCTTGAGGCAACAGACTCTTCCCCTTCGCGGAGTCACCTAGTGCAG | 8030 fluorescence intensity (a.u.)
GAGAGTTCCTGGTCCACCACTTCGCGGATTACTGCGCCGACGGAGTCACCTAGTGCAG | 11200 fluorescence intensity (a.u.)
ACACACACTAGCTACTTCTACTTCTATCATACCAAACAAACGGAGTCACCTAGTGCAG | 10500 fluorescence intensity (a.u.)

Sequence | binding signal
CTTATCCCCTTGCGTGCCTCATCTTCCTTATCCTCTTGCACGGAGTCACCTAGTGCAG | 9990 fluorescence intensity (a.u.)
GTCCATTGTTTTTTTCTTTTTGGATTTTCTCCTTTTCTTACGGAGTCACCTAGTGCAG | 10700 fluorescence intensity (a.u.)
GATGTGACCCTTCTTCTACCTCGCGACCTCTCATCTATCGCGGAGTCACCTAGTGCAG | 10400 fluorescence intensity (a.u.)
CCATCCATCCCTCCAGCGAGCAGGGCGGGCGCCGTCGTTCCGGAGTCACCTAGTGCAG | 8340 fluorescence intensity (a.u.)
GTAGTGATTCTTGCTCGCTTTGTTTCTCTGAATCCTTGCACGGAGTCACCTAGTGCAG | 10200 fluorescence intensity (a.u.)
GGGTGAGTGCGCGTGCGTTGTGAGTGTTTGTATTGTACTGCGGAGTCACCTAGTGCAG | 9790 fluorescence intensity (a.u.)
GAAGAAGAGGCGGGCGGGCGGGCGCGGGGTGAAGGCAGGACGGAGTCACCTAGTGCAG | 11800 fluorescence intensity (a.u.)
AGTTCTTCTCCACCACAAGTTTCGCGCGCTGCTCGCTCGCCGGAGTCACCTAGTGCAG | 8480 fluorescence intensity (a.u.)
TGCCCGCGTCTTCGCCGCTCGCCGCCGTCTCTGCTTGCCTCGGAGTCACCTAGTGCAG | 9960 fluorescence intensity (a.u.)
CATCAAGTCATCAACAGTCACATGCCCTGCTAGCTAGTACCGGAGTCACCTAGTGCAG | 8140 fluorescence intensity (a.u.)
ACATGGCCATATTATAATGTTGGTAACACACGTGAGGTTGCGGAGTCACCTAGTGCAG | 8470 fluorescence intensity (a.u.)
AACCTGATGTTTCTTTTTTTTTCTTTTGACTTCTAACTTGCGGAGTCACCTAGTGCAG | 8780 fluorescence intensity (a.u.)
TGGGGTATTCTAGTATTCTGGTGTTTGTATTGATATATGTCGGAGTCACCTAGTGCAG | 10600 fluorescence intensity (a.u.)
TCACTGTCTCTCACCCTCCCAACGCTTAGACATTTCAACGCGGAGTCACCTAGTGCAG | 8070 fluorescence intensity (a.u.)
ATTGTCTTGGCTGCTGTCTTTATAGTATTCACTCATCTGCCGGAGTCACCTAGTGCAG | 18500 fluorescence intensity (a.u.)
GAGAGAGAGGAAATGCGGGCGGGGTGGCGGCCATGGCCAACGGAGTCACCTAGTGCAG | 10800 fluorescence intensity (a.u.)
CAGATGGCGGCGCTGGTGTGGGAGGGAGAAGGTGCGGGGACGGAGTCACCTAGTGCAG | 9040 fluorescence intensity (a.u.)
GTACTGTTTTTATGCTCTTGTTATATAATTGTCATGATGACGGAGTCACCTAGTGCAG | 8740 fluorescence intensity (a.u.)
AACTTCCTCGATAGACATTCCACACATGTTGTTCATGTTACGGAGTCACCTAGTGCAG | 9230 fluorescence intensity (a.u.)
AAAACACAACTTTGACTTCTTGTTTTATAAAAATATTTATCGGAGTCACCTAGTGCAG | 8720 fluorescence intensity (a.u.)
TCAGTAAGCATTTTTGTGGTCCTTTACTCCTTACTAATCTCGGAGTCACCTAGTGCAG | 10900 fluorescence intensity (a.u.)
